{"source": "paper PMC9507967", "binders": {"B1": {"name": "Red1 tagged with 6 copies of the hemagglutinin epitope (Red1-6xHA), expressed from the endogenous locus, Q9UTR8 1-712 (protein)", "chain": "MSRSINLDELRKKALESKKKNEEDESNDSDKEDGEISEDDPVIDQSNSVPPMKVPTFPEQIPQLPPFDRFPGTNANFFPFGAPFMLPPALMFGPNTVPFFPQTASSNKTFSKRKRSSENSFNNRNKAKSSETSDSSNTSQSFKENRALKDTATSRPLALSSDTSYQKSEKAKSEKSPFLSTSKNSDANYSKTTNQKEAEKAVSQLFEVGVRFNDFIAEGIEPSVVHTLFLKLGLDSSSASSQGSLTLSADKAARSAKLRKIDSNLSDTHILPGDNGTPTVLPERKNLISLPLLKQDDWLSSSKPFGSSTPNVVIEFDSDDDGDDFSNSKIEQSNLEKPPSNSENGLTMSRSDYLALLRNKEEEIRRMTKLILRLESNKKPYRSPTSAADMKLPSVPVAAVDNKSKTHLDTFEKVVDLSSKADFVEAGPSISSSGASSSAATTNSDTTEQILEAPWLRKTEQIAVVHEEHPAQIKKSEIDILNNLIEKEEGELTKYQTLVKSKTEILTQLYTRKKQLLEQQGKGNVACLPKESDLSMDSITEVSAQADENSSQILSSKTSNAPNGTTETDFEDKVPLVDYISPFYRFKSYRFNQQFVERVPLKYRSLTYSNKIEPMKVFCKYETTGGVCNDDHCEASHFRDIKMTDDEIIQDLSRYIEGNDEIEKESYKSGLDIVMKNTDENTDFVDVATRIVEYHNLWKSERMTIPVAKVSI"}}, "target": "T1, Lem2-GFP WT (Lem2-GFP FL), expressed from a pREP81 based overexpression vector (S. pombe), Q10109", "T1 chain": "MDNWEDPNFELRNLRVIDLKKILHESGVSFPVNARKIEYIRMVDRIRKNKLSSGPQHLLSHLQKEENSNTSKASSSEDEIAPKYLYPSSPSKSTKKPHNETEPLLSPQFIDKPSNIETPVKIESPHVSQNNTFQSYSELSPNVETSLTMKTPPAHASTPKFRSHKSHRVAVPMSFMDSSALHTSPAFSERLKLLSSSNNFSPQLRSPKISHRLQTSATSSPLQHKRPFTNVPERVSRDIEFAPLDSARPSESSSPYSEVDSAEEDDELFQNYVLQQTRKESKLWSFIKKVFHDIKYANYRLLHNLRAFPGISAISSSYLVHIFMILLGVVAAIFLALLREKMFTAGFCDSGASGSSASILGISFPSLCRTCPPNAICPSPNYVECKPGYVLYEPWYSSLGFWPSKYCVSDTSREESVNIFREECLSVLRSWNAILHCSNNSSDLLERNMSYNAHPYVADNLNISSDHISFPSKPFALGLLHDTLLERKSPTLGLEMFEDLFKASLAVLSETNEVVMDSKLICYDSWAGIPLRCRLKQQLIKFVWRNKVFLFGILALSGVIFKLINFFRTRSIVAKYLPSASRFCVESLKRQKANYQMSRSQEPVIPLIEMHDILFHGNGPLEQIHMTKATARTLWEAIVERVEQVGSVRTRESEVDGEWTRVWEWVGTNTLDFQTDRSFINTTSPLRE", "assay": "co-IP; Lem2-GFP FL, ∆N or ∆MSC expressed from a pREP81 based overexpression vector in lem2∆ strains; co-immunoprecipitation of Red1-6xHA; immunoblot", "conditions": "remark: other sources report otherwise", "note": "Results are given in words; binding and its absence hold for the method and conditions named. In cells and extracts the contact can be indirect. Some results given as binding are weak or reduced against the parent protein; the word gives no strength. Sequences can lack the tags named with a protein.", "data": [{"binder": "B1", "values": [{"measurement": "binding", "value": "binds"}]}]}
